Data taken from PubChem BioAssay AID2685 (National Center for Advancing Translational Sciences (NCATS), 2010).
This is one part of the list. These are further read-outs of the screen, such as a control signal, another cell line or another target. No call is given for them. Compounds called inactive in the main read-out are mostly missing here. Words in brackets tell the shape of the fitted curve; partial curves, single points and poor fits give uncertain potencies.

Experiment: qHTS Assay for Lipid Storage Modulators in Drosophila S3 Cells;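 for cell number change: cells counted by Cell Tracker Red CMTPX staining in the red channel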
Settings: BODIPY lipid droplet fluorescence, 18-24 h; for cell number change: measured here: cell count max response, cells fed with added oleic acid
Method in brief: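 Drosophila S3 cells loaded with oleic acid (400 uM, as added) and compounds at several concentrations; lipid droplets imaged by 488-nm laser-scanning cytometry, 500–530 nm intensity and object ratio to cell channel. Percent activity normalized to 20 uM Triacsin C.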

[1] = measured here: lipid fluorescence (Fed channel) AC50, cells fed with added oleic acid
[2] = measured here: cell number channel AC50, cells fed with added oleic acid

Structure (SMILES): COCCCNC(=S)NCCCNc1nc2cc3c(cc2cc1C#N)OCO3
- AC50 [1]: 3.26 µM [rising, partial curve, poor fit]

Structure (SMILES): Nc1nnnn1CC(=O)N/N=C/c1ccccn1
- cell number change: 6.07%

Structure (SMILES): CCOc1ccc([C@@H]2CC=C(C(=O)O)[C@H](c3cccc(Cl)c3)N2S(=O)(=O)c2ccc(C)cc2)cc1
- AC50 [1]: 2.91 µM [rising, full curve]

Structure (SMILES): O=[N+]([O-])c1ccc(-c2nnc(CNC3CCCC3)o2)cc1
- cell number change: 48.6%
- AC50 [2]: 1.3 µM [rising, full curve]
- AC50 [1]: 0.92 µM [rising, full curve]

Structure (SMILES): Cc1ccc(CNC(=O)c2cc3c(C)nc4ccccc4c3o2)cc1
- AC50 [1]: 4.61 µM [falling, single point]

Structure (SMILES): Cc1ccccc1OC(C)C(=O)N1CCN(c2ccccn2)CC1 (stereo unspecified)
- cell number change: 24.6%
- AC50 [2]: 6.51 µM [rising, partial curve]
- AC50 [1]: 4.61 µM [rising, full curve]

Structure (SMILES): c1coc(-c2nnc(SCc3nc4ccccc4[nH]3)o2)c1
- cell number change: -8.71%
- AC50 [1]: 2.06 µM [rising, partial curve, poor fit]

Structure (SMILES): CCOC(=O)N1CCC(N2CC34C=CC(O3)C(C(=O)Nc3ccc(OCC)cc3)C4C2=O)CC1 (stereo unspecified)
- cell number change: 14.8%
- AC50 [1]: 0.206 µM [falling, full curve, poor fit]

Structure (SMILES): CCCN1CCN(C(=O)CCCNC(=O)Cn2cnc3sc(C)c(C)c3c2=O)CC1
- cell number change: -23.7%
- AC50 [1]: 13 µM [falling, partial curve]

Structure (SMILES): CCC(Oc1ccccc1)C(=O)Nc1ccsc1C(=O)OC (stereo unspecified)
- cell number change: -33.3%
- AC50 [2]: 7.31 µM [falling, partial curve]

Structure (SMILES): COc1c2ccoc2c(OCC=C(C)C)c2oc(=O)ccc12
- cell number change: 15.5%
- AC50 [1]: 0.291 µM [rising, full curve]

Structure (SMILES): CCCCc1ccc(N=N/C(C(=O)Nc2cc(OC)c(NC(C)=O)cc2OC)=C(/C)O)cc1
- cell number change: 20.1%
- AC50 [1]: 29.1 µM [falling, single point]

Structure (SMILES): O=C(CSc1nnc(COc2ccc(Cl)cc2)o1)NC1CCCCC1
- cell number change: 27.4%
- AC50 [1]: 0.651 µM [falling, single point]

Structure (SMILES): C/C(=N/O)c1cc(C(C)(C)C)c(O)c(C(C)(C)C)c1
- cell number change: 6.72%

Structure (SMILES): CC(C)OC(=O)c1cccnc1SCc1cc(=O)n2ccccc2n1
- cell number change: 23.5%
- AC50 [1]: 0.411 µM [rising, full curve, poor fit]

Structure (SMILES): C=CCOc1ccc(C2OC34CCCCC3C(C#N)(C#N)C2(C#N)C(=N)O4)cc1 (stereo unspecified)
- cell number change: 30.4%
- AC50 [2]: 13 µM [rising, single point]

Structure (SMILES): CN(C(=O)CSc1ncnc2scc(-c3ccccc3)c12)C1CCS(=O)(=O)C1 (stereo unspecified)
- cell number change: 35%
- AC50 [2]: 11.6 µM [rising, partial curve]
- AC50 [1]: 11.6 µM [rising, partial curve]

Structure (SMILES): CC1(C)C=Cc2c(ccc3c2OC[C@H](c2ccc(O)cc2O)C3)O1
- cell number change: -81.6%
- AC50 [2]: 14.6 µM [falling, partial curve]

Structure (SMILES): O=S(=O)(c1ccc(Cl)c(C(F)(F)F)c1)N1CCN(CC(O)COCC2CCCO2)CC1 (stereo unspecified)
- AC50 [2]: 0.731 µM [falling, single point]

Structure (SMILES): O=c1/c(=C/c2ccco2)sc2n1CN(c1cccc(Br)c1)CN=2
- cell number change: 73.3%
- AC50 [2]: 0.731 µM [rising, full curve]
- AC50 [1]: 1.84 µM [rising, full curve]

Structure (SMILES): O=C(CCSc1ccccc1)N1CCN(C(=O)c2ccco2)CC1
- AC50 [1]: 0.731 µM [falling, full curve]

Structure (SMILES): O=C1CC(N2CCOCC2)C(=O)N1c1ccccc1Cl (stereo unspecified)
- cell number change: -19%
- AC50 [1]: 29.1 µM [falling, single point]

Structure (SMILES): CCOC(=O)C(NC(=O)c1ccccc1Cl)(Nc1sc2c(c1C(N)=O)CCC2)C(F)(F)F (stereo unspecified)
- cell number change: -47.1%
- AC50 [2]: 20.6 µM [falling, partial curve]
- AC50 [1]: 18.4 µM [falling, partial curve]

Structure (SMILES): Cc1cc(NC2C3CC4CC(C3)CC2C4)n2ncnc2n1 (stereo unspecified)
- cell number change: -12.4%
- AC50 [1]: 32.6 µM [falling, single point]

Structure (SMILES): NS(=O)(=O)c1ccc(CCNC(=O)c2ccc(C(=O)c3ccccc3)cc2)cc1
- cell number change: 28.3%
- AC50 [1]: 29.1 µM [rising, single point]

Structure (SMILES): O=[N+]([O-])c1cccc(S(=O)(=O)N2CCc3ccccc3C2)c1
- cell number change: 67.1%
- AC50 [2]: 32.6 µM [rising, partial curve]

Structure (SMILES): CN(c1cccc(NC(=O)CN(c2cccc(F)c2)S(C)(=O)=O)c1)S(C)(=O)=O
- cell number change: 29.4%
- AC50 [2]: 1.64 µM [falling, partial curve]

Structure (SMILES): Cc1ccc(NC(=O)COC(=O)C2CC(=O)N(Cc3ccccc3)C2)cc1S(=O)(=O)N(C)C (stereo unspecified)
- cell number change: 2.82%
- AC50 [2]: 0.00461 µM [rising, full curve, poor fit]

Structure (SMILES): O=C(N=C1N=C2C=CC=CN2Cc2ccccc21)c1ccc(S(=O)(=O)N2CCOCC2)cc1
- cell number change: 42.8%
- AC50 [2]: 5.8 µM [rising, partial curve, poor fit]
- AC50 [1]: 25.9 µM [rising, single point]

Structure (SMILES): O=C(CN1CCN(S(=O)(=O)c2cc(Cl)ccc2Cl)CC1)Nc1ccc2c(c1)OCCO2
- AC50 [2]: 4.11 µM [rising, single point]

Structure (SMILES): Cc1cc(NC(=O)COC(=O)COc2ccc(C(=O)c3ccccc3)cc2)no1
- cell number change: -24.2%
- AC50 [1]: 29.1 µM [rising, single point]

Structure (SMILES): Fc1ccc(-c2cc(C(F)(F)C(F)F)[nH]n2)cc1
- cell number change: -2.81%
- AC50 [1]: 6.51 µM [rising, single point]

Structure (SMILES): COc1ccccc1OCc1nc(-c2ccc([N+](=O)[O-])cc2)no1
- cell number change: 55.3%
- AC50 [2]: 5.8 µM [rising, partial curve]
- AC50 [1]: 5.8 µM [rising, partial curve]

Structure (SMILES): COc1cc2c(cc1OC)C(C)N(C(=O)c1cc3c(s1)-c1c(C)cccc1OC3)CC2 (stereo unspecified)
- cell number change: 17.1%
- AC50 [1]: 4.11 µM [rising, single point]

Structure (SMILES): CC(Oc1ccc2c3c(c(=O)oc2c1)CCCC3)C(=O)NCC(O)c1ccccc1 (stereo unspecified)
- cell number change: -6.27%

Structure (SMILES): CCCCC1(C)NC(=S)N2N1C(=S)NC2(C)CCCC (stereo unspecified)
- cell number change: -8.3%

Structure (SMILES): Cc1ncc([N+](=O)[O-])n1CC(=O)NCCc1ccccc1
- cell number change: -28.8%
- AC50 [1]: 20.6 µM [falling, single point]
